Some results were stated once for a whole list of compounds, not compound by compound.
What was measured:
Format in all cases: in vivo
[1] = test system: green peach aphid (Myzus persicae); assay: Myzus test (MYZUPE spray treatment); conditions: 500 g/ha of a.i., after 5 d, Chinese cabbage disks sprayed
Lolium multiflorum = assay: Herbicidal post-emergence action; conditions: about 3 weeks
Echinochloa crusgalli = assay: Herbicidal post-emergence action; conditions: about 3 weeks; for herbicidal activity against Echinochloa crus-galli: 80 g/ha of a.i.; for herbicidal activity against Echinochloa crusgalli: 320 g/ha of a.i.
Setaria viridis = assay: Herbicidal post-emergence action; conditions: about 3 weeks
Avena sativa = assay: Herbicidal post-emergence action; conditions: 320 g/ha of a.i., about 3 weeks

CCc1cc(Cl)cc(OC)c1C1=C(O)C2(CCC(CCOC)CC2)NC1=O (single isomer, unassigned) [Example I-1-a-50]
≥ 80%: efficacy (aphids killed) [1] | herbicidal activity against Lolium multiflorum (Lolium multiflorum; 80 g/ha of a.i.) | herbicidal activity against Lolium multiflorum (Lolium multiflorum; 320 g/ha of a.i.) | herbicidal activity against Echinochloa crus-galli (Echinochloa crusgalli) | herbicidal activity against Echinochloa crusgalli (Echinochloa crusgalli) | herbicidal activity against Setaria viridis (Setaria viridis; 80 g/ha of a.i.) | herbicidal activity against Setaria viridis (Setaria viridis; 320 g/ha of a.i.) | herbicidal activity against Avena sativa (Avena sativa)

CCc1cc(Cl)cc(OC)c1C1=C(OC(=O)COC)C2(CCCC(COC)C2)NC1=O (single isomer, unassigned) [Example I-1-b-6]
≥ 80%: efficacy (aphids killed) [1] | herbicidal activity against Lolium multiflorum (Lolium multiflorum; 80 g/ha of a.i.) | herbicidal activity against Lolium multiflorum (Lolium multiflorum; 320 g/ha of a.i.) | herbicidal activity against Echinochloa crus-galli (Echinochloa crusgalli) | herbicidal activity against Echinochloa crusgalli (Echinochloa crusgalli) | herbicidal activity against Setaria viridis (Setaria viridis; 80 g/ha of a.i.) | herbicidal activity against Setaria viridis (Setaria viridis; 320 g/ha of a.i.) | herbicidal activity against Avena sativa (Avena sativa)

CCc1cc(C)cc(Br)c1C1=C(OC(=O)C(C)C)C2(CCCC(CCOC)C2)NC1=O (single isomer, unassigned) [Example I-1-b-17]
≥ 80%: efficacy (aphids killed) [1] | herbicidal activity against Lolium multiflorum (Lolium multiflorum; 80 g/ha of a.i.) | herbicidal activity against Lolium multiflorum (Lolium multiflorum; 320 g/ha of a.i.) | herbicidal activity against Echinochloa crus-galli (Echinochloa crusgalli) | herbicidal activity against Echinochloa crusgalli (Echinochloa crusgalli) | herbicidal activity against Setaria viridis (Setaria viridis; 80 g/ha of a.i.) | herbicidal activity against Setaria viridis (Setaria viridis; 320 g/ha of a.i.) | herbicidal activity against Avena sativa (Avena sativa)

CCOc1cc(Cl)cc(CC)c1C1=C(OC(=O)C(C)C)C2(CCC(CCOC)CC2)NC1=O (single isomer, unassigned) [Example I-1-b-22]
≥ 80%: efficacy (aphids killed) [1] | herbicidal activity against Lolium multiflorum (Lolium multiflorum; 320 g/ha of a.i.) | herbicidal activity against Echinochloa crusgalli (Echinochloa crusgalli) | herbicidal activity against Setaria viridis (Setaria viridis; 320 g/ha of a.i.) | herbicidal activity against Avena sativa (Avena sativa)

CCOC(=O)OC1=C(c2c(CC)cc(Cl)cc2OCC)C(=O)NC12CCCC(CCOC)C2 (single isomer, unassigned) [Example I-1-c-25]
≥ 80%: herbicidal activity against Lolium multiflorum (Lolium multiflorum; 80 g/ha of a.i.) | herbicidal activity against Lolium multiflorum (Lolium multiflorum; 320 g/ha of a.i.) | herbicidal activity against Echinochloa crus-galli (Echinochloa crusgalli) | herbicidal activity against Echinochloa crusgalli (Echinochloa crusgalli) | herbicidal activity against Setaria viridis (Setaria viridis; 80 g/ha of a.i.) | herbicidal activity against Setaria viridis (Setaria viridis; 320 g/ha of a.i.) | herbicidal activity against Avena sativa (Avena sativa)

CCOC(=O)OC1=C(c2c(CC)cc(Cl)cc2OC)C(=O)NC12CCCC(CCOC)C2 (single isomer, unassigned) [Example I-1-c-26]
≥ 80%: herbicidal activity against Lolium multiflorum (Lolium multiflorum; 80 g/ha of a.i.) | herbicidal activity against Lolium multiflorum (Lolium multiflorum; 320 g/ha of a.i.) | herbicidal activity against Echinochloa crus-galli (Echinochloa crusgalli) | herbicidal activity against Echinochloa crusgalli (Echinochloa crusgalli) | herbicidal activity against Setaria viridis (Setaria viridis; 80 g/ha of a.i.) | herbicidal activity against Setaria viridis (Setaria viridis; 320 g/ha of a.i.) | herbicidal activity against Avena sativa (Avena sativa)

CCOC(=O)OC1=C(c2c(CC)cc(Cl)cc2OCC)C(=O)NC12CCC(CCOC)CC2 (single isomer, unassigned) [Example I-1-c-29]
≥ 80%: herbicidal activity against Lolium multiflorum (Lolium multiflorum; 320 g/ha of a.i.) | herbicidal activity against Echinochloa crusgalli (Echinochloa crusgalli) | herbicidal activity against Setaria viridis (Setaria viridis; 320 g/ha of a.i.) | herbicidal activity against Avena sativa (Avena sativa)

CCOC(=O)OC1=C(c2c(CC)cc(Cl)cc2OC)C(=O)NC12CCC(CCOC)CC2 (single isomer, unassigned) [Example I-1-c-30]
≥ 80%: herbicidal activity against Lolium multiflorum (Lolium multiflorum; 80 g/ha of a.i.) | herbicidal activity against Lolium multiflorum (Lolium multiflorum; 320 g/ha of a.i.) | herbicidal activity against Echinochloa crus-galli (Echinochloa crusgalli) | herbicidal activity against Echinochloa crusgalli (Echinochloa crusgalli) | herbicidal activity against Setaria viridis (Setaria viridis; 80 g/ha of a.i.) | herbicidal activity against Setaria viridis (Setaria viridis; 320 g/ha of a.i.) | herbicidal activity against Avena sativa (Avena sativa)

CCOc1cc(Cl)cc(CC)c1C1=C(O)C2(CCCC(CCOC)C2)NC1=O (stereo not shown) [Example I-1-a-47]
≥ 80%: herbicidal activity against Lolium multiflorum (Lolium multiflorum; 80 g/ha of a.i.) | herbicidal activity against Lolium multiflorum (Lolium multiflorum; 320 g/ha of a.i.) | herbicidal activity against Echinochloa crus-galli (Echinochloa crusgalli) | herbicidal activity against Echinochloa crusgalli (Echinochloa crusgalli) | herbicidal activity against Setaria viridis (Setaria viridis; 80 g/ha of a.i.) | herbicidal activity against Setaria viridis (Setaria viridis; 320 g/ha of a.i.) | herbicidal activity against Avena sativa (Avena sativa)
